This assay can be described thus: qHTS Assay to Find Inhibitors of Chronic Active B-Cell Receptor Signaling. As to conditions: ABC-DLBCL IkBa-CBG/CBR reporter, luminescence ratio (green luciferase fused to IkBa over red control in TMD8 lymphoma cells), 4 h. An outline of the steps: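 TMD8 human ABC-DLBCL cells with doxycycline-inducible IκBα–green luciferase fusion and unfused red luciferase, in 0.5% FBS medium; compounds up to 46 uM, 4 h at 37C. Green/red luminescence ratio, filter-overlap corrected, fitted to concentration-response curves.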
For orientation: Quantitative high-throughput screening tests each substance at several concentrations.

Setting [1] is: measured here: CBR red luminescence, cell number.
Setting [2] is: measured here: IkBa-CBG green luminescence.

Several values for one entry are separate records, joined by “and”; a condition that tells them apart may be missing. Equal values may be shown once. Some of the results follow. The main result of the screen is listed elsewhere. These columns were measured beside it and carry no call. Most of these compounds were active or inconclusive in the main read-out, so they are no random draw. Words in brackets tell the shape of the fitted curve; partial curves, single points and poor fits give uncertain potencies.

38 compounds from PubChem BioAssay AID493014 (National Center for Advancing Translational Sciences (NCATS), 2011) can be followed below.

For `O=C(c1ccc(Cl)cc1)N1CCC(O)(CSc2ccc(Cl)cc2Cl)CC1`, the AC50 – broadly, the midpoint of the concentration-response curve, whichever way the signal moves – under setting [1] is 20.6 µM [falling, single point] and the AC50 under setting [2] was 25.9 µM [rising, single point].

Turning to `COc1ccc2c(c1)C(=C(C#N)C#N)C(=O)N2CCc1ccccc1`, the concentration at half-maximal activity (AC50) under setting [1] is 0.562 µM [falling, full curve, poor fit].

Turning to `CNc1nnc(-c2cc3ccccc3oc2=O)s1`, the AC50 under setting [1] is 2.82 µM [falling, full curve]. The same measure, in the same setting: the same measure for `COC(=O)c1cc(O)cc(OC)c1Oc1cc(C)cc(O)c1C(=O)O`: 10 µM [falling, partial curve].

Take `O=C1CC(N2CCN(c3nc4ccccc4s3)CC2)C(=O)N1c1ccc(F)cc1` (configuration not stated): under setting [1], the AC50 was 29.1 µM [rising, single point].

Turning to `N#Cc1c(NC(=O)CN2CCOCC2)oc(-c2ccccc2)c1-c1ccccc1`, the AC50 under setting [1] is 23.1 µM [falling, partial curve, poor fit]. Still for that read-out and setting: the same measure for `Cc1csc(NC(=O)CSc2nnc(-c3ccoc3C)n2CCc2ccccc2)n1`: 22.4 µM [falling, single point]; for `COc1ccc(C(=O)On2c(-c3ccc(Br)cc3)nc3ccccc3c2=O)cc1`: 16.4 µM [falling, single point]. Same read-out and setting: the result for `CCC1CCc2sc(C(=O)NCc3ccccn3)cc2C1` (configuration not stated) reads 0.794 µM [rising, full curve, poor fit]; that for `O=C(O)COc1ccc(/C=N/NC(=O)c2ccc(-c3csc(Nc4ccc(Cl)cc4)n3)cc2)cc1`, 2.51 µM [falling, partial curve, poor fit].

Take `COc1ccc(C(=O)N2CCc3cc(OC)c(OC)cc3C2c2ccc(OC)c(OC)c2)cc1` (configuration not stated): the AC50 runs as follows: under setting [1], 3.16 µM [rising, full curve, poor fit]; under setting [2], 14.1 µM [falling, partial curve, poor fit].

With `CCOC(=O)C1CCCN(C(=O)c2ccc3[nH]c4c(c3c2)CC(C)CC4)C1` (configuration not stated), the AC50 under setting [1] is 0.58 µM [falling, full curve, poor fit]. Still for that read-out and setting: the result for `CC(C)(C)OC(=O)C[C@H]1C/C=C\C[C@@H](CC(=O)N(CCO)Cc2ccccc2)C(=O)N2CCC[C@H]2COC1=O` reads 23.1 µM [rising, partial curve, poor fit]. Same read-out and setting: the result for `Cc1cccc(CNc2ncnc3ccc(-c4ccc5c(c4)OCCO5)cc23)c1` reads 16.4 µM [falling, partial curve, poor fit] and 29.1 µM [falling, single point]; that for `CCOC(=O)c1csc(N/N=C2\CCc3ccccc32)n1`, 1 µM [rising, partial curve]. `O=C(N/N=C/c1c[nH]c2ccccc12)c1cc(Br)ccc1O`: the half-maximal activity concentration (AC50) under setting [1] is 0.891 µM [falling, full curve, poor fit]. Same read-out and setting: the same measure for `N#Cc1ccc(C(=O)Nc2cccc(S(=O)(=O)NC3=NCCC3)c2)cc1`: 2.06 µM [falling, partial curve, poor fit]; for `Cc1cc(C)cc(OCC(=O)N2CCc3ccccc3C2)c1`: 11.2 µM [rising, partial curve]; for `CCCn1nnc(NC(=O)c2cc(Br)ccc2OC)n1`: 0.231 µM [rising, full curve, poor fit]. Same read-out and setting: the same measure for `O=C(Nc1cccc2cccnc12)c1cc(F)c(F)cc1Cl`: 12.6 µM [rising, partial curve]; for `CCc1ccc(-c2cc(C(=O)N/N=C/c3ccccn3)[nH]n2)cc1`: 22.4 µM [falling, partial curve, poor fit]; for `Cc1nc(-c2cccc(S(=O)(=O)N3CCC(C(=O)NCc4ccccc4)CC3)c2)no1`: 2.82 µM [rising, partial curve, poor fit]. Still for that read-out and setting: the result for `O=[N+]([O-])c1ccc(Sc2cccc3cccnc23)c([N+](=O)[O-])c1` reads 32.6 µM [falling, single point]. Regarding `COc1cccc(-n2cc(CNCc3c(C(=O)N(C)C)nc4ccc(Cl)cn34)cn2)c1`, the AC50 reads like this: under setting [1], 4.47 µM [rising, full curve, poor fit]; under setting [2], 2.51 µM [rising, partial curve, poor fit]. Turning to `CC(Cc1cccnc1)NC(=O)c1ccccc1OC1CCN(S(C)(=O)=O)CC1` (configuration not stated), the AC50 under setting [1] was 11.2 µM [rising, partial curve, poor fit]. As to `COc1cccc(OCC(=O)Nc2ccc(OC)c(OC)c2)c1`, the AC50 reads like this: under setting [1], 23.1 µM [falling, partial curve]; under setting [2], 20.6 µM [rising, partial curve, poor fit]. Regarding `Cc1ccc(C(C(=O)NCc2ccco2)N(Cc2ccco2)C(=O)CNC(=O)c2ccco2)cc1` (configuration not stated), the AC50 under setting [1] is 35.5 µM [rising, single point].

Regarding `FC(F)(F)c1nnc(-c2ccccc2)nc1Oc1ccccc1`, under setting [1], the AC50 is 25.9 µM [falling, single point].

With `CSc1c(SCc2ccccc2)cnn(Cc2ccccc2)c1=O`, the AC50 under setting [1] was 2.91 µM [rising, partial curve].

With `COc1ccc2oc(C(=O)N(Cc3ccco3)Cc3cccs3)c(C)c2c1`, the AC50 under setting [1] was 25.9 µM [rising, single point]. The same measure, in the same setting: the same measure for `Cc1onc(-c2c(Cl)cccc2Cl)c1NC(=O)N(C)N`: 1.58 µM [rising, full curve, poor fit]; for `O=C1CC2(CCN(C(=O)C3CC(=O)N(c4ccc(F)cc4)C3)CC2)Oc2ccccc21` (configuration not stated): 0.82 µM [falling, full curve, poor fit]. Still for that read-out and setting: the result for `COc1ccc(CNC(=O)Cn2cc(C(F)(F)F)ccc2=O)cc1` reads 9.2 µM [rising, partial curve, poor fit]; that for `CCOC(=O)c1cnn(-c2ccccc2)c1NC(=O)CN1CCOCC1`, 35.5 µM [rising, single point].

Take `O=C1NC(=S)N/C1=C/c1ccc2c(c1)OCO2`: the AC50 under setting [1] is 0.447 µM [falling, full curve]. Still for that read-out and setting: the same measure for `c1ccc(Cn2c(CNc3nc4ccccc4n3CCN3CCOCC3)nc3ccccc32)cc1`: 35.5 µM [falling, partial curve, poor fit]; for `COC(=O)C1=C(C)N(Cc2ccccc2)C(=NCc2ccccc2)N[C@H]1c1cccc(C(F)(F)F)c1`: 13 µM [falling, single point]. Same read-out and setting: the result for `O=C(COc1ccccc1)Nc1nccs1` reads 20.6 µM [falling, partial curve].
